# Test results from PubChem BioAssay AID662 (National Center for Advancing Translational Sciences (NCATS), 2007).
# Where “and” joins values, the source holds several entries; their conditions need not be identical. Equal values may be shown once. Some of the results follow. The main result of the screen is listed elsewhere. These columns were measured beside it and carry no call. The list favours compounds with an active or inconclusive main result. Potencies come from curve fits of mixed quality, noted in brackets.
# Assay: Cell signaling CRE-BLA (Fsk stim)
# Details: CHO CRE-bla reporter (cAMP response element driving beta-lactamase), forskolin EC10, beta-lactamase ratio; measured here: 460 nm blue channel
# Procedure, shortened: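 AC50 values, positive or negative, reflect shifts in EC10 NKH 477-induced CRE-bla reporter activity in CHO cells. Incubation lasted 3 h at 37 °C before CCF4 substrate (2 h, room temperature) and ratiometric 460/530 nm reading.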
row,SMILES,AC50
1,COC(=O)C1=C(N)Oc2cc(C)n(CC3CCCO3)c(=O)c2C1c1ccc(Cl)cc1 (stereo not given),"7.94 µM [falling, partial curve]"
2,Cc1ccc(-c2nc(-c3cccnc3)no2)cc1,"12.6 µM [rising, single point]"
3,C=CCN1C(=O)C(O)(CC(=O)c2ccc(-n3cccc3)cc2)c2ccccc21 (stereo not given),"12.6 µM [falling, partial curve, poor fit]"
4,O=C(Nc1ccccc1)N1CCSCC1,"7.94 µM [rising, partial curve]"
5,CCn1c(SCC(=O)Nc2nc3ccc(OC)cc3s2)nc2c1c(=O)n(C)c(=O)n2C,"1.58 µM [rising, full curve]"
6,COc1ccc(-c2cc(C(F)(F)F)nc(SCC(N)=O)n2)cc1,"15.8 µM [rising, partial curve, poor fit]"
7,CCCC(C(=O)NCc1ccco1)N(C(=O)CNS(=O)(=O)c1ccc(Cl)cc1)C1CCCC1 (stereo not given),"15.8 µM [falling, single point]"
9,OC1CCN(c2ncnc3c2nnn3Cc2c(F)cccc2Cl)CC1,"5.01 µM [falling, single point]"
10,CNc1nc(SCC(=O)OC)nc(N2CCOCC2)n1,"5.01 µM [rising, partial curve]"
11,CC(C)C12CN3CC(C(C)C)(CN(C1)C3c1ccccc1)C2O (stereo not given),"0.398 µM [rising, partial curve]"
12,O=C(Nc1ccc(N2CCN(C(=O)c3ccco3)CC2)c(Cl)c1)c1cccs1,"31.6 µM [falling, single point]"
13,O=C(COC(=O)c1cc(-c2ccco2)nc2ccccc12)NCc1ccc2c(c1)OCO2,"10 µM [rising, partial curve]"
14,CCOc1cc2[nH]c(=S)n(CCOC)c(=O)c2cc1OCC,"10 µM [rising, single point]"
15,Cc1ccc(S(=O)(=O)Oc2ccc(N=Nc3ccc(-c4ccc(N=Nc5c(O)ccc6cc(S(=O)(=O)O)cc(S(=O)(=O)O)c56)c(C)c4)cc3C)cc2)cc1,"0.316 µM [falling, full curve]"
16,CCOC(=O)Cc1c(C)c2c(O)cc(O)cc2oc1=O,"10 µM [rising, partial curve]"
17,O=C(Cn1[nH]c(=O)c2ccccc2c1=O)Nc1cccc(-c2nnc3n2CCCCC3)c1,"0.631 µM [falling, full curve, poor fit]"
18,CCCCCn1c(CN2CCN(c3cccc(Cl)c3)CC2)nc2c1c(=O)n(C)c(=O)n2C,"12.6 µM [rising, partial curve]"
19,COc1ccc(CCN(Cc2nc3ccccc3c(=O)[nH]2)C(=O)c2ccco2)cc1,"10 µM [rising, partial curve]"
20,CCOC(=O)c1cnc(-n2nc(C)cc2C)nc1NCc1ccc2c(c1)OCO2,"12.6 µM [falling, partial curve, poor fit]"

# Copied from the list:
# O=C(Nc1ccccc1)N1CCSCC1 – AC50: 7.94 µM [rising, partial curve]
# COc1ccc(-c2cc(C(F)(F)F)nc(SCC(N)=O)n2)cc1 – AC50: 15.8 µM [rising, partial curve, poor fit]
# COc1ccc(CCN(Cc2nc3ccccc3c(=O)[nH]2)C(=O)c2ccco2)cc1 – AC50: 10 µM [rising, partial curve]

# Next part:

row,SMILES,AC50
1,O=C(c1ccc(-c2ccccc2)cc1)N1CCN(c2ncccn2)CC1,"10 µM [rising, single point]"
2,CCCCNc1nc(N(C)c2ccccc2)nc(-n2ccnc2)n1,"1.26 µM [rising, partial curve]"
3,OC(CN1CCN(c2cccc(C(F)(F)F)c2)CC1)c1c[nH]c2ccccc12 (stereo not given),"6.31 µM [falling, partial curve, poor fit]"
4,COc1ccccc1NC(=O)N1CCn2c(nc3ccccc32)C1,"10 µM [rising, partial curve, poor fit]"
5,CCCC(=O)Nc1ncnc2c1ncn2[C@@H]1O[C@H]2COP(=O)(O)O[C@@H]2[C@@H]1OC(=O)CCC,"3.98 µM [rising, full curve, poor fit]"
6,C=C(Cl)COc1ccc2c(C)cc(=O)oc2c1,"1.26 µM [rising, partial curve]"
7,O=C(NC1CCCCCC1)c1cc(S(=O)(=O)N2CCC3(CC2)OCCO3)ccc1F,"3.16 µM [rising, full curve]"
8,Cc1ccc(S(=O)(=O)/N=C(/Nc2nc(C)cc(C)n2)N2CCOCC2)cc1,"0.01 µM [rising, full curve, poor fit]"
9,CSc1nc2ccc(S(=O)(=O)Nc3c(C)n(C)n(-c4ccccc4)c3=O)cc2s1,"15.8 µM [falling, partial curve]"
10,CC(C)NS(=O)(=O)c1ccc(OCC(=O)NCc2ccccc2)cc1,"25.1 µM [rising, single point]"
11,O=C(Nc1nc(-c2ccc(S(=O)(=O)N3CCCC3)cc2)cs1)C1COc2ccccc2O1 (stereo not given),"12.6 µM [falling, partial curve]"
12,CS(=O)(=O)Nc1cccc(-c2nc(NCc3ccccc3)c3ccccc3n2)c1,"6.31 µM [rising, partial curve]"
13,CCOC(=O)Nc1ccc2c(c1)N(C(=O)CCN1CCOCC1)c1ccccc1S2=O (stereo not given),"25.1 µM [falling, partial curve]"
14,COc1ncc2nc(-c3ccccc3)c(=O)n(C3CC3)c2n1,"12.6 µM [rising, partial curve]"
15,O=C(NCc1ccco1)c1cc2nc(C3CC3)cc(C(F)(F)F)n2n1,"10 µM [rising, partial curve]"
16,O=c1onc2cnc3ccccc3n12,"12.6 µM [rising, partial curve, poor fit]"
17,C=CCOC(=O)C1=C(C)NC(SCC(=O)OCC)=C(C#N)C1c1ccc(O)c(OC)c1 (stereo not given),"12.6 µM [rising, single point]"
18,COc1ncc2nc(-c3cc(F)cc(F)c3)c(=O)n(C3CC3)c2n1,"20 µM [rising, single point]"
19,CCCCNC(=O)CN(C1CCCCC1)S(C)(=O)=O,"0.0251 µM [falling, full curve]"
20,Cc1cc(SCC(=O)Nc2c(C)n(C)n(-c3ccccc3)c2=O)n2c(nc3ccccc32)c1C#N,"20 µM [rising, single point]"
